pIC50: −log10 of the molar value. Like-named read-outs stand apart in the source and are kept apart here.

These results are taken from patent US10189878B2 (priority 2014, dated 2019).

The test system of data set [1] is marburgvirus GP pseudovirions. It is filed as cell-based, Marburg Musoke.
For the next data set, the system named is Ebola virus (Kikwit). It is filed as cell-based, Zaire ebolavirus.
Data set [2] concerns ebolavirus GP pseudovirions. It is filed as cell-based, Zaire ebolavirus.
Data set [3] concerns vesicular stomatitis virus glycoprotein pseudotype (VSV). It is filed as cell-based.
The format of data set [4] is physicochemical. The note with it: pH 5.8.
The test system of another data set is Marburg virus (Ci67). It is filed as cell-based.
The format of data set [5] is physicochemical. Conditions: pH 5.8. This is another data set of the same source.
Setting [6] is: read-out: IC50 against marburgvirus pseudotype.
Setting [7] is: read-out: IC50 against ebolavirus pseudotype.

Regarding “GHMDIKKEIEAIKKEQEAIKKKIEAIEKELRQLANETTQDLQLFLRDTTELRTFSILNRKDIDFLLQRMKQIEDKIEEIESKQKKIENEIARIKKLIGERY [eboIZN39IQ(D3)]”, the pIC50 (in general, the IC50 on a negative log10 scale, so that one unit is a factor of ten) is 4.96 in data set [1] (setting [6]), 4.96 in data set [2] (read-out: IC50 against ebolavirus GP pseudovirus) and 5.05 in data set [2] (setting [7]). For the same sequence, the “inhibition of wild-type ebolavirus entry (in words)” value with Ebola virus (Kikwit) is “no inhibition”. The “anti-ebolavirus activity diminished relative to eboIZN39IQ” value in data set [2] is recorded as roughly 30 fold. In addition, the “activity against VSV glycoprotein pseudotype” value in data set [3] is given as “not seen”.

In the case of “GHMDIKKEIEAIKKEQEAIKKKIEAIEKELRQLANETTQALQLFLRATTELRTFSILNRKAIDFLLQRMKQIEDKIEEIESKQKKIENEIARIKKLIGERY [eboIZN39IQ]”, the “[θ222 nm] 25° C.” value in data set [4] is listed as −29,400 deg cm^2 dmol^−1. In addition, the “[θ222 nm] 37° C.” value in data set [4] is listed as −27,900 deg cm^2 dmol^−1. Also, in data set [4], the “[θ222 nm] 50° C.” value is given as −27,100 deg cm^2 dmol^−1. In data set [1], the “anti-marburgvirus activity better than eboIZN39IQ(D3)” value is on record as roughly 2 fold. Moreover, the pIC50 was 5.27 in data set [1] (setting [6]), 5.24 in data set [1] (read-out: IC50 against marburgvirus pseudovirus), 6.59 in data set [2] (setting [7]) and 6.49 in data set [2] (read-out: average IC50 against ebolavirus GP pseudovirus). For the same sequence, in the data set on Marburg virus (Ci67), the “activity against wild-type marburgvirus” value was “no activity”. Further, the “infected cells compared to vehicle control” value in the data set on Ebola virus (Kikwit) is reported as 33%. Also, in the data set on Ebola virus (Kikwit) (10 µM), the “inhibition of entry of wild-type ebolavirus” value came out at 67%. Also, the “Mobs/Mcalc 4° C.” value in data set [5] is reported as 3.24.
